Values after ≈ are worked out from the molar mass of the structure shown.
Tested on: P. aeruginosa
Assay: Standard broth dilution assay (MIC), P. aeruginosa
Assay type: cell-based
Conditions: Pseudomonas aeruginosa
Protocol: The sensor was placed inside an incubator at 37° C. while automatically measuring the acoustic spectrum every 15 minutes for 3 hours.

MIC: 0.08 µg/mL (≈ 0.241 µM)
Compound: O=C(O)c1cn(C2CC2)c2cc(N3CCNCC3)c(F)cc2c1=O [ciprofloxacin]
